Our source for the binding values is paper PMC3670934.

Chains of the proteins cited; added tags and fusions are not shown. Residues count along the entry.
UniProt P51677: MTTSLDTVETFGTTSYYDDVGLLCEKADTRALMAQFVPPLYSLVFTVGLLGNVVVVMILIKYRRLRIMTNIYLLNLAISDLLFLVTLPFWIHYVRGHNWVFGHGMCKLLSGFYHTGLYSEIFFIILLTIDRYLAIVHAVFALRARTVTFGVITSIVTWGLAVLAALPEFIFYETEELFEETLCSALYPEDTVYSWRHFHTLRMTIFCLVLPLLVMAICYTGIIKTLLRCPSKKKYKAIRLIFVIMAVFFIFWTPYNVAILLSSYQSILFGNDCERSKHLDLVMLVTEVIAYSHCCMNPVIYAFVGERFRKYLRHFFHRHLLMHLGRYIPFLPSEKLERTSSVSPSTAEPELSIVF
UniProt P48061, residues 22-93: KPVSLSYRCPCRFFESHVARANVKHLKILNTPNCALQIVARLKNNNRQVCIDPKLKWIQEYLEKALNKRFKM

This experiment concerns the target Human chemokine receptor CCR3 with a C-terminal 10-His tag (human) (UniProt P51677). Kind of experiment: SPR; Biacore T100; His-tagged hCCR3 immobilised on a Ni-activated NTA sensor chip, chemokine flowed at 30 µl/min; 25°C; 10 mM HEPES, 0.15 M NaCl, 0.1% (wt/vol) DDM, pH 7.4; hCCR3 purified in DDM; 1:1 binding model, KD = kd/ka; both purified. Background: In SPR one partner is held on a chip, and binding of the other changes the refractive index at the surface.

Results are given in words; binding and its absence hold for the method and conditions named.

“commercial recombinant human CXCL12 (PeproTech) (from UniProt P48061 22-93) (ligand)”: the binding entry is recorded as “no binding”.
